# Results are given in words; binding and its absence hold for the method and conditions named. In cells and extracts the contact can be indirect. Some entries that bind do so weakly or less than the wild type.
# B1: ubiquitin-specific peptidase 22 (USP22) (enzyme, UniProt Q9UPT9 1-525)
# chain: MVSRPEPEGEAMDAELAVAPPGCSHLGSFKVDNWKQNLRAIYQCFVWSGTAEARKRKAKSCICHVCGVHLNRLHSCLYCVFFGCFTKKHIHEHAKAKRHNLAIDLMYGGIYCFLCQDYIYDKDMEIIAKEEQRKAWKMQGVGEKFSTWEPTKRELELLKHNPKRRKITSNCTIGLRGLINLGNTCFMNCIVQALTHTPLLRDFFLSDRHRCEMQSPSSCLVCEMSSLFQEFYSGHRSPHIPYKLLHLVWTHARHLAGYEQQDAHEFLIAALDVLHRHCKGDDNGKKANNPNHCNCIIDQIFTGGLQSDVTCQVCHGVSTTIDPFWDISLDLPGSSTPFWPLSPGSEGNVVNGESHVSGTTTLTDCLRRFTRPEHLGSSAKIKCSGCHSYQESTKQLTMKKLPIVACFHLKRFEHSAKLRRKITTYVSFPLELDMTPFMASSKESRMNGQYQQPTDSLNNDNKYSLFAVVNHQGTLESGHYTSFIRQHKDQWFKCDDAIITKASIKDVLDSEGYLLFYHKQFLEYE
# Assays:
# [1] = biological target: Flag-PTEN (phosphatase and tensin homolog deleted on chromosome ten) (UniProt P60484); assay: co-IP; co-immunoprecipitation in 293T cells (Fig. S2); bait not told
# [2] = biological target: phosphatase and tensin homolog deleted on chromosome ten (PTEN), endogenous (human (endogenous in SW 1990 and HPAC)) (UniProt P60484); assay: co-IP; endogenous immunoprecipitation from SW 1990 and HPAC lysates in RIPA buffer; primary antibody overnight on ice, Protein A beads 3 h at 4 °C; western blot
binder,measurement,setting,value
B1,binding,[1],binds
same,binding,[2],binds
